Source: ChEMBL document CHEMBL3988442, “University of Dundee, Small-Polar-MMV Screening Library” (2021).

The chains behind the UniProt entries cited, without tags or fusion partners.
UniProt P9WPC5, whole entry: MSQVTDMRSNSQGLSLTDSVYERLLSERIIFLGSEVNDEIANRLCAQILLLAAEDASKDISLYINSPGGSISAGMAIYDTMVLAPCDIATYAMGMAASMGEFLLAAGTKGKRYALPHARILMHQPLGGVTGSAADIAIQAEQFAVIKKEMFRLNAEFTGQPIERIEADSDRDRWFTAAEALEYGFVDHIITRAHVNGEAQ
UniProt P9WPC3, whole entry partner: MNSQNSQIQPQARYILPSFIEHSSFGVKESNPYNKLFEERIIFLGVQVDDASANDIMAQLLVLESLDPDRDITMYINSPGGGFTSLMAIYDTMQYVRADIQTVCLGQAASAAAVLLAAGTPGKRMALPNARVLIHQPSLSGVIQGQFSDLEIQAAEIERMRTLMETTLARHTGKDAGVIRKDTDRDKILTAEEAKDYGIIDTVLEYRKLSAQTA

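Protease assay of ClpP1P2, read by the AMC dye that it sets free. Target: ClpP1P2, Mycobacterium tuberculosis (UniProt P9WPC5 and UniProt P9WPC3). Concentration: 50 µM. Direction is inferred from only a few compounds that gave an IC50; most scored high, so higher reads as stronger inhibition. Most other retested compounds had strongly negative values. Size under these conditions: about 69,000 compounds, about 10 of them at 50% or above in at least one test.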

Results are given as percent effect. The record does not define 0% and 100%; most values in the screen are far below 50% and negative numbers occur (in some assays of this library far below -100). Compounds were drawn at random from those tested, without regard to their results.

{"compound": "CC(NS(=O)(=O)CCCC#N)c1cccc(-n2cccn2)c1", "stereo": "stereo not shown", "percent effect": 2.373}
{"compound": "Cc1nccn1-c1ccc(CNS(=O)(=O)N2CCC(C)CC2)cn1", "percent effect": -8.867}
{"compound": "CN1CCCC1CNC(=O)CCOc1ccc(Cl)cc1", "stereo": "stereo not shown", "percent effect": -33.34}
{"compound": "CCNc1ncc(C(=O)N[C@H](C(N)=O)c2ccccc2)cn1", "percent effect": 16.26}
{"compound": "Oc1ccccc1N1CCN(c2ncnc3sc4c(c23)CCNC4)CC1", "percent effect": 4.857}
{"compound": "CNC(=O)COC1COC2(CCN(Cc3ccncc3F)CC2)C1", "stereo": "stereo not shown", "percent effect": 8.461}
{"compound": "Cn1cc(CN2C[C@H]3CCC[C@@H](CNc4nccn4C)[C@H]3C2)cn1", "percent effect": -5.209}
{"compound": "COC(=O)C1(C)CCN(C(=O)NCCc2c(C)[nH]c3ccccc23)C1", "stereo": "stereo not shown", "percent effect": -7.842}
{"compound": "Cc1cc(NC2CCc3nc(C(C)C)nn3C2)n2ncnc2n1", "stereo": "stereo not shown", "percent effect": -7.709}
{"compound": "O=C1COc2ccc(Br)cc2CN1CC1CC1", "percent effect": -1.663}
{"compound": "Cc1ncc(CNC(C)(C)CO)c2cc(C(=O)c3ccc(Br)cc3)oc12", "percent effect": -9.873}
{"compound": "COc1ncccc1CNCc1c(C)nn(C)c1N(C)C", "percent effect": 8.349}
{"compound": "N#Cc1cccnc1N1CCCC(CO)(Cc2ccccc2F)C1", "stereo": "stereo not shown", "percent effect": -7.524}
{"compound": "CC(C(=O)N1CCN(c2ccccc2Cl)CC1)n1cncn1", "stereo": "stereo not shown", "percent effect": 10.17}
{"compound": "CC(=O)Nc1ncc(S(=O)(=O)N2CCN(C3CCCCC3)CC2)s1", "percent effect": -10.89}
{"compound": "Cn1nc(C(=O)NC2CCCC2)cc1NC(=O)C1CC1", "percent effect": -1.135}
{"compound": "CCOc1ccccc1N1CCN(c2nnc(C)o2)CC1", "percent effect": -0.01152}
{"compound": "CN(C)C(=O)CC1CC2(CCN(c3ncccn3)CC2)c2ccccc21", "stereo": "stereo not shown", "percent effect": 0.3236}
{"compound": "COc1ccc(C[C@H]2CN(C(=O)c3ccn(C)n3)CC[C@H]2OC)cc1", "percent effect": -5.051}
{"compound": "COCCN1CCC2(CC1)CN(C(=O)c1ccco1)CCO2", "percent effect": 19.35}
{"compound": "CN(Cc1cccc(F)c1)C(=O)CS(=O)(=O)Cc1ccc(Cl)c(Cl)c1", "percent effect": -11}
{"compound": "O=S(=O)(c1ccccc1)N1CCCC1c1cc[nH]n1", "stereo": "stereo not shown", "percent effect": -1.146}
{"compound": "O=C(NCCc1nnc2n1CCCCC2)N1CCC2(CCCC2)CC1", "percent effect": 0.489}
{"compound": "O=C(NCc1cccnc1-n1cncn1)c1ccc2c(c1)CCO2", "percent effect": -35.95}
{"compound": "COCC(=O)N1CCCC1(C)c1nc(C)cc(O)n1", "stereo": "stereo not shown", "percent effect": 4.958}
{"compound": "CCCc1cc(N(CCOC)CC(F)F)n2ncnc2n1", "percent effect": 4.862}
{"compound": "CC(C)c1nn(C)c(N(C)C)c1CNCCC(=O)NC1CCCC1", "percent effect": -2.275}
{"compound": "Cc1noc(C(C)C)c1C(=O)NCC(c1ccsc1)N(C)C", "stereo": "stereo not shown", "percent effect": 17.91}
{"compound": "O=C1CCCN1Cc1nnc(SCc2ccc3c(c2)CCC3)o1", "percent effect": 0.9025}
{"compound": "CN(Cc1ccco1)C[C@H]1OC[C@@H]2CCN(Cc3ccsc3)C[C@@H]21", "percent effect": -21.08}
{"compound": "Cc1ccc(CN2CCc3onc(C(=O)Nc4cccnc4)c3C2)o1", "percent effect": 13.49}
{"compound": "O=C(c1cc(Cl)c[nH]c1=O)N1C[C@@H]2CC[C@H](C1)N(Cc1ccccc1)C2", "percent effect": 27.73}
{"compound": "CCC(NC(=O)NCc1cc(Cl)ccc1OC)c1noc(C)n1", "stereo": "stereo not shown", "percent effect": 0.2994}
{"compound": "O=C(NCCc1cccc(O)c1)NC1CCN(c2ccccc2)C1=O", "stereo": "stereo not shown", "percent effect": -16.26}
{"compound": "CCS(=O)(=O)c1ncc(CN2CCOCC2)n1CCCc1ccccc1", "percent effect": -10.36}
{"compound": "Cc1nc(CNC(=O)NC2CCN(c3ncccc3Cl)C2)oc1C", "stereo": "stereo not shown", "percent effect": -6.823}
{"compound": "c1coc(CN2CCC3(CC2)CC(N2CCCC2)CO3)c1", "stereo": "stereo not shown", "percent effect": 12.82}
{"compound": "Cc1cnn(CC2CCCN2Cc2noc(C(C)(C)C)n2)c1", "stereo": "stereo not shown", "percent effect": -11.17}
{"compound": "CC(Cc1ccco1)NS(=O)(=O)N1CCCCCC1", "stereo": "stereo not shown", "percent effect": -8.023}
{"compound": "CC(=O)N1CC2(CCN(c3ccc4ccccc4n3)CC2)CC1C(=O)O", "stereo": "stereo not shown", "percent effect": 1.826}
{"compound": "CC(c1ccccn1)N(C)Cc1ccc(-n2cncn2)cc1", "stereo": "stereo not shown", "percent effect": -14.84}
{"compound": "CN1CCN(C(C)(C)CNC(=O)C2CCCN2S(C)(=O)=O)CC1", "stereo": "stereo not shown", "percent effect": 6.931}

The first 5 entries again:

compound,percent effect
CC(NS(=O)(=O)CCCC#N)c1cccc(-n2cccn2)c1 (stereo not shown),2.373
Cc1nccn1-c1ccc(CNS(=O)(=O)N2CCC(C)CC2)cn1,-8.867
CN1CCCC1CNC(=O)CCOc1ccc(Cl)cc1 (stereo not shown),-33.34
CCNc1ncc(C(=O)N[C@H](C(N)=O)c2ccccc2)cn1,16.26
Oc1ccccc1N1CCN(c2ncnc3sc4c(c23)CCNC4)CC1,4.857